Assay results taken from publication PMC6943137, “A novel 5′-hydroxyl dinucleotide hydrolase activity for the DXO/Rai1 family of enzymes”.
No constants are given. Whether binding was seen depends on the method and setting. Some results given as binding are weak or reduced against the parent protein; the word gives no strength. Tags and fused reporters may be left off the sequences shown.

Target: T1, Schizosaccharomyces pombe Rat1, full length, C-terminal hexa-histidine tag (from pET24d) (S. pombe) (UniProt P40848)
T1 sequence: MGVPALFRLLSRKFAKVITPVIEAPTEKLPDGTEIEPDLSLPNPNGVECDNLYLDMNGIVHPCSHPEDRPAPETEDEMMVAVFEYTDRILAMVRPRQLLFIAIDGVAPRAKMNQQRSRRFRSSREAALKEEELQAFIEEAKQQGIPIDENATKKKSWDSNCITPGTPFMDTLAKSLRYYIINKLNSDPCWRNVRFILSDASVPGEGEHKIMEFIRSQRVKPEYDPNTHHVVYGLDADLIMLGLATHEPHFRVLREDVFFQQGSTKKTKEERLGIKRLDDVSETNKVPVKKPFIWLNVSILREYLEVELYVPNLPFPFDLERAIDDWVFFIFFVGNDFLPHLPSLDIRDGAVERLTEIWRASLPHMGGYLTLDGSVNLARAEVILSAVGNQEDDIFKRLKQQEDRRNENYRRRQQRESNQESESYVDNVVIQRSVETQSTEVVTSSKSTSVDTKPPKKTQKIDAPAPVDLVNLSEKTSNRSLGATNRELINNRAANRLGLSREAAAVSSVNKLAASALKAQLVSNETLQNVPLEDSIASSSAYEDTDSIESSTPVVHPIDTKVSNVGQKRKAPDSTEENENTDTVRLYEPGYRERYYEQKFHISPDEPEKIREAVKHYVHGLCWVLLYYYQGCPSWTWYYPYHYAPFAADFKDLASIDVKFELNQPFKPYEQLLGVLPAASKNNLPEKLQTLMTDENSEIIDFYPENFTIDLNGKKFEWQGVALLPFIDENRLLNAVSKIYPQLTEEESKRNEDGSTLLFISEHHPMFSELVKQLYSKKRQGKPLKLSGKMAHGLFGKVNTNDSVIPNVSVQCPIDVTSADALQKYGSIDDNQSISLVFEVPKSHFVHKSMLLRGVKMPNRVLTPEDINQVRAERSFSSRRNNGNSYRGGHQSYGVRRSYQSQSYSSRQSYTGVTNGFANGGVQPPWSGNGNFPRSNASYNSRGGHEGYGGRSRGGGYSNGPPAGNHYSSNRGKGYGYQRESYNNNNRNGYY
Assay: co-purification (Ni-NTA affinity, then gel filtration); E. coli cells producing His6-tagged Rat1 lysed and sonicated together with cells producing untagged Rai1; lysate in 400 mM NaCl, 20 mM Tris pH 7.5, 20 mM imidazole on Ni-NTA resin; gel filtration (Sephacryl S-300) in 250 mM NaCl, 20 mM Tris pH 7.5, 2 mM DTT

binding: binds
B1: Schizosaccharomyces pombe Rai1 (no affinity tag, from pET26b) (enzyme, UniProt O13836 1-352)
chain: MLREFSFYDVPPAHVPPVSEPLEIACYSLSRDRELLLDDSKLSYYYPPPLFSDLNTGFPNRFHPPKSDPDPISIVKDVLMTKGIQMNSSFLTWRGLITKIMCAPLDPRNHWETYLVMDPTSGIIMMEERTRSETSYANQDRMCYWGYKFEAISTLPEIWDACSRDQIEQRDNQDVVPDEQYCSIVKINIGKSKLILAGEVDCIWDKKPCSAKESDVHSDDGTIEEDASNAENPNLHYVELKTSKKYPLENYGMRKKLLKYWAQSFLLGIGRIIIGFRDDNGILIEMKELFTHQIPKMLRPYFKPNDWTPNRLLVVLEHALEWIKQTVKQHPPSTEFTLSYTGGSKLVLRQII
